Source: patent US10392419B2, “Modified cyclic dinucleotide compounds” (Boehringer Ingelheim International GmbH, priority 2017, dated 2019)
Some entries share one result that the patent states for a list of compounds.

Amino acid sequences for entries named in this document (tags omitted).
UniProt Q86WV6, whole entry H232R: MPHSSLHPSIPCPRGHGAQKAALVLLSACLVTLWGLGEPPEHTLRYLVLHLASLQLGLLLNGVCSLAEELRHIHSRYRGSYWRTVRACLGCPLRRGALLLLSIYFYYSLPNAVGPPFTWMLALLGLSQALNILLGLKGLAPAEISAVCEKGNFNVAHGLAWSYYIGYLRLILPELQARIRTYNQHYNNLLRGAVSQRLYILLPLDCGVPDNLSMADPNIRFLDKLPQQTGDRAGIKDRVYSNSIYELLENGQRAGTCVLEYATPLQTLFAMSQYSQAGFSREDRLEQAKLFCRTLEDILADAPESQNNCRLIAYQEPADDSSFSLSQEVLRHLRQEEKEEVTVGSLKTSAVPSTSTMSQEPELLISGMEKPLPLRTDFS
UniProt Q86WV6, whole entry H232R/R293Q: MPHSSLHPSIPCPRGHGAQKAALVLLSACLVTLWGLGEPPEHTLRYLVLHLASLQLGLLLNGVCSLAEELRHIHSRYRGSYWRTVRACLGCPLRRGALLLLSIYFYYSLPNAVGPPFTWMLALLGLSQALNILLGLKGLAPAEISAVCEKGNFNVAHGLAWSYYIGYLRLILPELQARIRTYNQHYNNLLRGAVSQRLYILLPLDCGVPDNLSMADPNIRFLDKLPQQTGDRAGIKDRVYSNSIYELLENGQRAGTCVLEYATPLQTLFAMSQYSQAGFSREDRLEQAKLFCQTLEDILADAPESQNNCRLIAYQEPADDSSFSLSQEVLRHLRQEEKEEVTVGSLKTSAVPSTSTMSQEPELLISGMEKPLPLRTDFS
UniProt Q86WV6, whole entry R71H/G230A/H232R/R293Q: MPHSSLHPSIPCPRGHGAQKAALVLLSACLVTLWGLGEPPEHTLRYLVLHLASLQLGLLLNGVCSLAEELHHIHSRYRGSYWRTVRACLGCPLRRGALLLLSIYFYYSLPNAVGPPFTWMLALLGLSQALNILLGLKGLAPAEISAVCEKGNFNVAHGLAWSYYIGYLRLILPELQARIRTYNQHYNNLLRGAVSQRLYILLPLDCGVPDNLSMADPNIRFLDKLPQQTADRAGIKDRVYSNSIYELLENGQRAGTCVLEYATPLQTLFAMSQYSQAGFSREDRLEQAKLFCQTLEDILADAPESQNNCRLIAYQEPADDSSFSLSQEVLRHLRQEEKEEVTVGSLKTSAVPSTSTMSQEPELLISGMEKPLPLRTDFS
UniProt Q86WV6, whole entry G230A/H232R/R293Q: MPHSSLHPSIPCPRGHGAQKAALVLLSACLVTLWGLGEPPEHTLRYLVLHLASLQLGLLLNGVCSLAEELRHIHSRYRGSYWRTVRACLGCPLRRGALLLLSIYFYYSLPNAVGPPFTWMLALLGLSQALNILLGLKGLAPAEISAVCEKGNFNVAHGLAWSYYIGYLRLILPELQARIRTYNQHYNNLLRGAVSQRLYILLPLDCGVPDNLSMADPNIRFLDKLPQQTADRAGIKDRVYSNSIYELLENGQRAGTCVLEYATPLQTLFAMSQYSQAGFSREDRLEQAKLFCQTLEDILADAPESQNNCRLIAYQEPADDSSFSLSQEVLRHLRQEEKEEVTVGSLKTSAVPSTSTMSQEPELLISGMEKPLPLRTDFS
UniProt Q86WV6, whole entry, stated change not applied: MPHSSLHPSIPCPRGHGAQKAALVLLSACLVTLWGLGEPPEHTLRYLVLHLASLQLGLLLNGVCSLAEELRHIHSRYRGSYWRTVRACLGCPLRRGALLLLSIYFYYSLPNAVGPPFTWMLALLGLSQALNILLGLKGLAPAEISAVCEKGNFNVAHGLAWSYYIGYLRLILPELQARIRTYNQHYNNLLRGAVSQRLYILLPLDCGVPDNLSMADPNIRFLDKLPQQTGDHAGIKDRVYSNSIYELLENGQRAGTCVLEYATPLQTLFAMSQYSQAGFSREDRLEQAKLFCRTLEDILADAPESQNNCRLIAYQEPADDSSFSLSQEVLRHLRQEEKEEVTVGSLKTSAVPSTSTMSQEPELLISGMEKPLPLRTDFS

Columns and labels:
Format in all cases: cell-based
hSTING WT = target: T1, hSTING WT (Homo sapiens, UniProt Q86WV6, H232R); assay: THP1-Blue ISG hSTING KO reporter cells expressing hSTING variant WT; details: WT variant cell line
T1 construct: expressed in transfected cells; host or cells: THP1-Blue ISG hSTING KO clone, retroviral MSCV-ires-GFP-Blasti

hSTING R293Q = target: T2, hSTING R293Q (Homo sapiens, UniProt Q86WV6, H232R/R293Q); assay: THP1-Blue ISG hSTING KO reporter cells expressing hSTING variant R293Q; details: R293Q variant cell line
T2 construct: expressed in transfected cells; host or cells: THP1-Blue ISG hSTING KO clone, retroviral MSCV-ires-GFP-Blasti

hSTING HAQ = target: T3, hSTING HAQ (Homo sapiens, UniProt Q86WV6, G230A/H232R/R293Q/R71H); assay: THP1-Blue ISG hSTING KO reporter cells expressing hSTING variant HAQ; details: HAQ variant cell line
T3 construct: expressed in transfected cells; host or cells: THP1-Blue ISG hSTING KO clone, retroviral MSCV-ires-GFP-Blasti

hSTING AQ = target: T4, hSTING AQ (Homo sapiens, UniProt Q86WV6, G230A/H232R/R293Q); assay: THP1-Blue ISG hSTING KO reporter cells expressing hSTING variant AQ; details: AQ variant cell line
T4 construct: expressed in transfected cells; host or cells: THP1-Blue ISG hSTING KO clone, retroviral MSCV-ires-GFP-Blasti

hSTING R232H = target: T5, hSTING R232H (Homo sapiens, UniProt Q86WV6); assay: THP1-Blue ISG hSTING KO reporter cells expressing hSTING variant R232H; details: R232H variant cell line
T5 construct: expressed in transfected cells; host or cells: THP1-Blue ISG hSTING KO clone, retroviral MSCV-ires-GFP-Blasti

Measured: EC50

Cyclic (LNA-adenosine-(3′→5′)-phosphorothioate-2′-F-2′-deoxyguanosine-(3′→5′)-phosphorothioate), Sodium Salt [Example 2.1]
≤ 1000 nM: all assays above

Cyclic (LNA-adenosine-(3′→5′)-phosphorothioate-2′-F-2′-deoxyinosine-(3′→5′)-phosphorothioate), Sodium Salt [Example 4.1]
≤ 1000 nM: all assays above

Cyclic (LNA-guanosine-(3′→5′)-phosphorothioate-2′-F-2′-deoxyadenosine-(3′→5′)-phosphorothioate), Sodium Salt [Example 3.1]
≤ 1000 nM: all assays above
